# Results of single-concentration screens

The chains behind the UniProt entries cited, without tags or fusion partners. Residues count along the entry.
UniProt A4I591, 1-473: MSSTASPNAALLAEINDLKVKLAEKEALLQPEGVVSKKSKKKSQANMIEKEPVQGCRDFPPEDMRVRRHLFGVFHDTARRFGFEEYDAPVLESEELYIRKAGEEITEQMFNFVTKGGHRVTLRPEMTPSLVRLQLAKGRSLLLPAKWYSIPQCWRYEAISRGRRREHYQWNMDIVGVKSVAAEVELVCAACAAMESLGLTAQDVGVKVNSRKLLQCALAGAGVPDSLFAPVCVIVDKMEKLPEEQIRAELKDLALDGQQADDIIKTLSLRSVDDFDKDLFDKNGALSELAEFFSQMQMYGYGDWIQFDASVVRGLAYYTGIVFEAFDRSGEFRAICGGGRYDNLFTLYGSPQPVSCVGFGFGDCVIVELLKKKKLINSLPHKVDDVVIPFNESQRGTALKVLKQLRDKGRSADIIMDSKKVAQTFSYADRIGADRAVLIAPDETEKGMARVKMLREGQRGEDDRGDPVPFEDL

LiHisRS: 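Enzyme assay of histidyl-tRNA synthetase; the read-out is not stated. Target: Histidine-tRNA ligase, Leishmania infantum (UniProt A4I591). Concentration: 30 µM. The record gives no direction; compounds that gave an IC50 in retests scored well above the rest, so higher reads as stronger inhibition. The assay is labelled LdHisRS but filed under L. infantum. Size under these conditions: about 69,000 compounds, about 410 of them at 50% or above in at least one test.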
Toxoplasma: 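Assay of Toxoplasma gondii numbers, read through their beta-galactosidase reporter with a colour substrate. Concentration: 10 µM. Higher reads as fewer parasites (inferred from which compounds were picked for retests). Size under these conditions: about 67,000 compounds, about 260 of them at 50% or above in at least one test.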

Values are the deposited “Percent Effect”, in %. The controls that fix the scale are not given in the record; negative values are as filed. This is an unselected part of the compounds tested. A dash means the value is not listed here; it may have been measured.

Compound | LiHisRS | Toxoplasma
CC(C)(C)n1nnnc1CN(Cc1ccccc1)Cc1ccccc1Cl | 12.77% | -4.393%
C1CN(CC2CCOCC2)Cc2c(CN3CCOCC3)nnn2C1 | 0% | -8.789%
CNC(=O)c1cc(-c2ccccc2OC)[nH]n1 | 15.84% | -31.38%
Cc1cc(S(=O)(=O)NCC(C)(O)CN(C)C)c(F)cc1F (centres undefined) | 7.143% | -5.811%
CCN(Cc1c(F)cccc1F)Cn1nc(C)c2c(C)onc2c1=O | 17.54% | 11.88%
CCN(CC)CC(=O)N(C)C(c1cccc(F)c1)c1ccccn1 (centres undefined) | 21.15% | -10.44%
O=c1[nH]c2c(-c3ccccn3)nsc2c(=O)n1CC1CCCO1 (centres undefined) | 19.51% | 9.59%
O=C(CSc1ccncc1)N1CCC2(CC1)c1ccccc1CC2O (centres undefined) | 15.2% | -9.246%
O=C(O)C1CCCN1c1nc(-c2ccc(Cl)c(Cl)c2)cc(C(F)(F)F)n1 (centres undefined) | 9.735% | 13.78%
COCCCNC(=O)C(C)n1cc(Br)cn1 (centres undefined) | -1.77% | 9.856%
c1ncn(Cc2cn3c(n2)CN(CC2CCCC2)CC3)n1 | 17.11% | -
COCC1c2c(cnn2CC2CC2)CCN1Cc1ccc(C)o1.O=C(O)C(F)(F)F.O=C(O)C(F)(F)F (centres undefined) | - | 7.897%
CN1CCCC[C@@H]2[C@H]1[C@@H](c1ccccc1)CCN2C(=O)c1cccnc1 | 19.79% | -
O=C1CC(N(C(=O)c2csc(-c3ccccc3)n2)C2CC2)C(=O)N1 (centres undefined) | 35.21% | 2.265%
O=C(O)C(F)(F)F.c1ccc(CN2Cc3nccn3CC(Cn3cncn3)C2)nc1 (centres undefined) | - | -25.18%

Measurements from “University of Dundee, Small-Polar-MMV Screening Library” (2021), ChEMBL document CHEMBL3988442.